For this data set, the system named is Desulfitobacterium strain DCA1. In words: Substrate range determination: growth on and dechlorination product from chlorinated substrates. The format is cell-based, Desulfitobacterium dichloroeliminans strain DCA1.

No dose or concentration is given here for some results.

As to `CCC(Cl)CCl` (stereo not shown) [1,2-DCB, 1,2-dichlorobutane], the Product is recorded as 1-butene.

(Values after EP1352977A2, “Novel Desulfitobacterium strain for the degradation of chloroalkenes” (UNIVERSITEIT GENT, priority 2002, dated 2003).)
